{
  "source": "patent US20040115706A1",
  "about": "“High-throughput methods for identifying quadruplex forming nucleic acids and modulators thereof” (priority 2002, published 2004)",
  "type_in_all_cases": "binding",
  "key": {"[1]": {"test_system": "ds DNA pGL3", "assay": "EB competition with NMM or TMPyP4 for ds DNA", "conditions": "6.5 μg/μl pGL3; FIG. 4C", "method": "Next, the effect of EB competition with NMM or TMPyP4 for ds DNA was assessed. The assay was carried out as described in the previous paragraph, with 6.5 μg/μl pGL3, and the results were graphically compiled in FIG. 4C.\npGL3 was purchased from Promega, Madison, Wis. pGL3/myc included the nuclease hypersensitive element (NHE) MYC8 fragment from the proximal region of human c-MYC. pGL3/myc was constructed by cloning the MYC8 fragment from human genomic DNA (Promega, Madison, Wis.) and inserting that fragment into the multiple cloning site of the pGL3 vector via Nhe I and Bgl II digestion and ligation. The MYC8 fragment (840 bp) was cloned from human genomic DNA using two primer oligonucleotides. The sense strand primer oligonucleotide for the c-MYC regulatory region had the nucleotide sequence 5′-[…]-3′ (SEQ ID NO: 36; Nhe I site is underlined), which corresponded to site 1993 in the sense strand GenBank sequence. The antisense primer had the nucleotide sequence 5′-[…]-3′ (SEQ ID NO: 37; Bgl II site is underlined), which corresponded to site 2833 in the sense strand GenBank sequence. The Genbank sequence was the Homo sapiens MYC gene, c-myc proto-oncogene and ORF1, Length=10996 (http address: www.ncbi.nlm.nih.gov/entrez/query.fcgi?cmd=Retrieve&db=nucleotide&list_uids=188965&dopt=GenBank). The construct was confirmed by sequencing."}, "[2]": {"test_system": "ss DNA QB-1", "assay": "Specificity of signal molecules for single-stranded DNA", "conditions": "3 μM NMM (FIG. 4A) or 3 μM EB (FIG. 4B)", "method": "(§1) The specificity of signal molecules NMM and ethidium bromide was assessed with respect to single-stranded (ss) DNA and double-stranded (ds) DNA. Fluorescence was plotted as a function of the concentration of ss DNA QB-1 or ds DNAs pGL3E or pGL3E/myc, under conditions of 3 μM NMM (FIG. 4A) or 3 μM EB (FIG. 4B). Fluorescence of NMM was measured as described in Example 1. Fluorescence of EB was measured at an excitation wavelength of 485 nm and an emission wavelength 590 nm using a FluoStar 2000 fluorometer (BMG Labtechnologies, Durham, N.C.). Ethidium bromide (EB) was obtained from Calbiochem, San Diego, Calif."}, "[3]": {"test_system": "ds DNAs pGL3E or pGL3E/myc", "assay": "Specificity of signal molecules for double-stranded DNA", "conditions": "3 μM NMM (FIG. 4A) or 3 μM EB (FIG. 4B)", "method": "as §1\npGL3 was purchased from Promega, Madison, Wis. pGL3/myc included the nuclease hypersensitive element (NHE) MYC8 fragment from the proximal region of human c-MYC. pGL3/myc was constructed by cloning the MYC8 fragment from human genomic DNA (Promega, Madison, Wis.) and inserting that fragment into the multiple cloning site of the pGL3 vector via Nhe I and Bgl II digestion and ligation. The MYC8 fragment (840 bp) was cloned from human genomic DNA using two primer oligonucleotides. The sense strand primer oligonucleotide for the c-MYC regulatory region had the nucleotide sequence 5′-[…]-3′ (SEQ ID NO: 36; Nhe I site is underlined), which corresponded to site 1993 in the sense strand GenBank sequence. […]"}},
  "note": "For at least one compound, name, drawing or mass did not settle the structure.",
  "data": [
    {"smiles": "CC[n+]1c(-c2ccccc2)c2cc(N)ccc2c2ccc(N)cc21", "note": "[EB, Ethidium bromide]", "values": [
      {"measurement": "competition with TMPyP4 for interaction with ds DNA", "setting": "[1]", "value": "competed with TMPyP4"},
      {"measurement": "interaction with single-stranded DNA", "setting": "[2]", "value": "did not interact appreciably with ss DNA"},
      {"measurement": "interaction with double-stranded DNA", "setting": "[3]", "value": "interacted with ds DNA"}
    ]}
  ]
}
